# Measured values as given in the supplement of paper PMC4604168 (melanoma cell lines).
# The other results are listed elsewhere or left out. Repeats are few or missing, and single values can be far off.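 Imaging used 1,536-well plates; nuclei positive for cleaved PARP by antibody were divided by total DNA-stained nuclei to yield the apoptosis fraction. Doses for screening kept most cells viable, and cell lines differ markedly in resting and induced cleaved-PARP levels.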
# How the values were obtained:
# Experiment in all cases: cleaved PARP positive nuclei fraction relative to DMSO control; melanoma cells; higher = more apoptosis
# Conditions in all cases: library dose: low library concentration; 72 h
# COLO792 = system: COLO792
# COLO800 = system: COLO800
# COLO829 = system: COLO829
# G361 = system: G361
# IPC-298 = system: IPC-298
# IST-MEL1 = system: IST-MEL1
# LB2518-MEL = system: LB2518-MEL
# LOXIMVI = system: LOXIMVI
# MEL-HO = system: MEL-HO
# MZ2-MEL = system: MZ2-MEL
# MeWo = system: MeWo
# RPMI7951 = system: RPMI7951
# RVH-421 = system: RVH-421
# SkMel28 = system: SkMel28
# SkMel2 = system: SkMel2
# SkMel30 = system: SkMel30
# SkMel5 = system: SkMel5
# UACC257 = system: UACC257
# UACC62 = system: UACC62
SMILES,cleaved PARP positive nuclei fraction (COLO792) [%],cleaved PARP positive nuclei fraction (COLO800) [%],cleaved PARP positive nuclei fraction (COLO829) [%],cleaved PARP positive nuclei fraction (G361) [%],cleaved PARP positive nuclei fraction (IPC-298) [%],cleaved PARP positive nuclei fraction (IST-MEL1) [%],cleaved PARP positive nuclei fraction (LB2518-MEL) [%],cleaved PARP positive nuclei fraction (LOXIMVI) [%],cleaved PARP positive nuclei fraction (MEL-HO) [%],cleaved PARP positive nuclei fraction (MZ2-MEL) [%],cleaved PARP positive nuclei fraction (MeWo) [%],cleaved PARP positive nuclei fraction (RPMI7951) [%],cleaved PARP positive nuclei fraction (RVH-421) [%],cleaved PARP positive nuclei fraction (SkMel28) [%],cleaved PARP positive nuclei fraction (SkMel2) [%],cleaved PARP positive nuclei fraction (SkMel30) [%],cleaved PARP positive nuclei fraction (SkMel5) [%],cleaved PARP positive nuclei fraction (UACC257) [%],cleaved PARP positive nuclei fraction (UACC62) [%]
"CC[C@]1(O)C[C@H]2CN(CCc3c([nH]c4ccccc34)[C@@](C(=O)OC)(c3cc4c(cc3OC)N(C=O)[C@H]3[C@@](O)(C(=O)OC)[C@H](OC(C)=O)[C@]5(CC)C=CCN6CC[C@]43[C@@H]65)C2)C1 [vincristine] + Cc1cc(N2CCOCC2)cc2[nH]c(-c3c(NC[C@@H](O)c4cccc(Cl)c4)cc[nH]c3=O)nc12 [BMS536924] (first compound 0.0001 µM, partner dose 0.2 µM)",59.8,81.7,259,151,141,106,50.7,24.7,64,428,166,124,150,659,99.3,248,188,862,612
"Cc1ccc(Nc2nccc(N(C)c3ccc4c(C)n(C)nc4c3)n2)cc1S(N)(=O)=O [Pazopanib] + CO[C@@H]1[C@H](N(C)C(=O)c2ccccc2)C[C@H]2O[C@]1(C)n1c3ccccc3c3c4c(c5c6ccccc6n2c5c31)C(=O)NC4 [Midostaurin] (first compound 0.4 µM, partner dose 0.08 µM)",62.1,76.7,163,50.6,126,64.5,251,118,120,43.1,28.3,62.1,55.1,56.1,94.2,97.5,331,400,26.4
"Cc1cc(Nc2cc(N3CCN(C)CC3)nc(Sc3ccc(NC(=O)C4CC4)cc3)n2)n[nH]1 [Tozasertib] + O=C(O)c1ccc(-c2c[nH]c3ncc(-c4ccccc4)cc23)cc1C1CCCC1 [GSK650394] (first compound 0.006 µM, partner dose 0.16 µM)",118,44.9,140,196,46.5,58.7,285,88.3,168,138,56.1,102,101,183,168,58.1,151,56.3,76.9
"Cc1cc(Nc2cc(N3CCN(C)CC3)nc(Sc3ccc(NC(=O)C4CC4)cc3)n2)n[nH]1 [Tozasertib] + OCCn1cc(-c2cnc3nnn(Cc4ccc5ncccc5c4)c3n2)cn1 [PF04217903] (first compound 0.006 µM, partner dose 1 µM)",80.2,88.9,87,153,94.6,51.3,46,60.8,84.3,58.3,108,76.3,95.5,57.8,71.3,72.9,146,93.4,64
"O=C(/C=C/c1cccnc1)NCCCCC1CCN(C(=O)c2ccccc2)CC1 + O=S(=O)(c1ccccc1)N(CC(F)(F)F)c1ccc(C(O)(C(F)(F)F)C(F)(F)F)cc1 [T0901317] (first compound 0.01 µM, partner dose 1.4 µM)",355,93.9,174,1400,152,175,42.9,102,,528,76.8,32.7,41.9,103,309,38.7,80.6,231,57.4
"N#CC[C@H](C1CCCC1)n1cc(-c2ncnc3[nH]ccc23)cn1 [ruxolitinib] + O=C(O)c1ccc(-c2c[nH]c3ncc(-c4ccccc4)cc23)cc1C1CCCC1 [GSK650394] (first compound 1 µM, partner dose 0.16 µM)",189,48.1,68.3,120,172,283,77.4,162,62.5,157,189,88.2,114,112,148,57.6,67.6,79,39.8
"N#CC[C@H](C1CCCC1)n1cc(-c2ncnc3[nH]ccc23)cn1 [ruxolitinib] + COC(=O)c1sccc1S(=O)(=O)Nc1ccc(Nc2ccccc2)cc1OC [GSK0660] (first compound 1 µM, partner dose 1 µM)",71,144,76.6,134,61.6,62.1,28.5,77.9,,77.7,137,147,129,121,101,79.7,70.4,26,149
"O=C(Nc1cc(C(F)(F)F)cc(C(F)(F)F)c1)c1cc(Cl)ccc1O + O=C(CCCCCCC(=O)Nc1ccccc1)NO [vorinostat] (first compound 0.016 µM, partner dose 0.08 µM)",171,47.1,88.6,107,42.8,101,48.1,81.2,35.7,97.7,38.7,162,56.2,606,73.6,63.4,217,170,156
